{"source": "PubChem BioAssay AID1259405, NCATS, 2018", "test": "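Mouse-designed siRNAs used to find CHO productivity engineering targets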 (primary screen)", "cells": "Chinese hamster CHO-K1 ovary cells with stable secreted eGFP expression", "knock-down reagent": "single siRNA against mouse genes, 0.8 pmol siRNA per well (2 µl of 400 nM stock)", "timing": "3 days", "measurement": "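Per-well intracellular GFP measured by laser scanning cytometry, plus viability from ATP luminescence, each relative to plate median of non-targeting control wells, in %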", "direction": "GFP, % of control: higher = more GFP per well, higher productivity; viability (ATP), % of control: higher = more viable cells (more ATP)", "call rule": "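a knock-down is called active if GFP reaches 120% or more of non-targeting control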", "note": "In all, the deposit lists about 50,000 reagents; shown is an unselected part. About 4,000 of all reagents (8%) count as active. 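Mouse siRNA library applied to hamster cells; one well for each siRNA.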 Unmarked entries are inactive. The numbers tell different reagents against one gene apart."}
{"gene knocked down": "Eps8l1", "reagent no.": 1, "GFP, % of control": 74.3, "viability (ATP), % of control": 70.5}
{"gene knocked down": "Eps8l1", "reagent no.": 2, "GFP, % of control": 55.5, "viability (ATP), % of control": 64.9}
{"gene knocked down": "Eps8l1", "reagent no.": 3, "GFP, % of control": 78.3, "viability (ATP), % of control": 118}
{"gene knocked down": "Adissp", "reagent no.": 1, "GFP, % of control": 91.9, "viability (ATP), % of control": 97.9}
{"gene knocked down": "Adissp", "reagent no.": 2, "GFP, % of control": 99, "viability (ATP), % of control": 77.5}
{"gene knocked down": "Adissp", "reagent no.": 3, "GFP, % of control": 97.5, "viability (ATP), % of control": 68.9}
{"gene knocked down": "Fut4", "reagent no.": 1, "GFP, % of control": 102, "viability (ATP), % of control": 108}
{"gene knocked down": "Fut4", "reagent no.": 2, "GFP, % of control": 83.4, "viability (ATP), % of control": 113}
{"gene knocked down": "Fut4", "reagent no.": 3, "GFP, % of control": 89.4, "viability (ATP), % of control": 123}
{"gene knocked down": "Smarcc1", "reagent no.": 1, "GFP, % of control": 58.3, "viability (ATP), % of control": 75.7}
{"gene knocked down": "Smarcc1", "reagent no.": 2, "GFP, % of control": 72.5, "viability (ATP), % of control": 92.1}
{"gene knocked down": "Nod1", "reagent no.": 1, "GFP, % of control": 89.4, "viability (ATP), % of control": 147}
{"gene knocked down": "Nod1", "reagent no.": 2, "GFP, % of control": 102, "viability (ATP), % of control": 77}
{"gene knocked down": "Pcdha3", "reagent no.": 1, "GFP, % of control": 70.4, "viability (ATP), % of control": 58.6}
{"gene knocked down": "Pcdha3", "reagent no.": 2, "GFP, % of control": 69.1, "viability (ATP), % of control": 35.7}
{"gene knocked down": "Pcdha3", "reagent no.": 3, "GFP, % of control": 69, "viability (ATP), % of control": 79.4}
{"gene knocked down": "Adgra1", "reagent no.": 1, "GFP, % of control": 40.3, "viability (ATP), % of control": 60.8}
{"gene knocked down": "Adgra1", "reagent no.": 2, "GFP, % of control": 60.2, "viability (ATP), % of control": 69.5}
{"gene knocked down": "Adgra1", "reagent no.": 3, "GFP, % of control": 100, "viability (ATP), % of control": 101}
{"gene knocked down": "Ntrk2", "reagent no.": 1, "GFP, % of control": 108, "viability (ATP), % of control": 88.7}
{"gene knocked down": "Ntrk2", "reagent no.": 2, "GFP, % of control": 96, "viability (ATP), % of control": 89.8}
{"gene knocked down": "Ntrk2", "reagent no.": 3, "GFP, % of control": 99.7, "viability (ATP), % of control": 74.7}
{"gene knocked down": "Hspbp1", "reagent no.": 1, "GFP, % of control": 73.5, "viability (ATP), % of control": 59.2}
{"gene knocked down": "Hspbp1", "reagent no.": 2, "GFP, % of control": 84.1, "viability (ATP), % of control": 66.5}
{"gene knocked down": "Slirp", "reagent no.": 1, "GFP, % of control": 96.8, "viability (ATP), % of control": 45.9}
{"gene knocked down": "Slirp", "reagent no.": 2, "GFP, % of control": 53.3, "viability (ATP), % of control": 61.5}
{"gene knocked down": "Slirp", "reagent no.": 3, "GFP, % of control": 52, "viability (ATP), % of control": 35.3}

Ordered by “GFP, % of control” (ascending): 7 of the entries above
{"gene knocked down": "Eps8l1", "reagent no.": 3, "GFP, % of control": 78.3, "viability (ATP), % of control": 118}
{"gene knocked down": "Fut4", "reagent no.": 2, "GFP, % of control": 83.4, "viability (ATP), % of control": 113}
{"gene knocked down": "Fut4", "reagent no.": 3, "GFP, % of control": 89.4, "viability (ATP), % of control": 123}
{"gene knocked down": "Adissp", "reagent no.": 1, "GFP, % of control": 91.9, "viability (ATP), % of control": 97.9}
{"gene knocked down": "Adissp", "reagent no.": 3, "GFP, % of control": 97.5, "viability (ATP), % of control": 68.9}
{"gene knocked down": "Adissp", "reagent no.": 2, "GFP, % of control": 99, "viability (ATP), % of control": 77.5}
{"gene knocked down": "Fut4", "reagent no.": 1, "GFP, % of control": 102, "viability (ATP), % of control": 108}

The listing continues.
{"gene knocked down": "Cep20", "reagent no.": 1, "GFP, % of control": 115, "viability (ATP), % of control": 101}
{"gene knocked down": "Cep20", "reagent no.": 2, "GFP, % of control": 52.9, "viability (ATP), % of control": 64.1}
{"gene knocked down": "Cep20", "reagent no.": 3, "GFP, % of control": "128 (active)", "viability (ATP), % of control": 104}
{"gene knocked down": "Tsga8", "reagent no.": 1, "GFP, % of control": "161 (active)", "viability (ATP), % of control": 70.4}
{"gene knocked down": "Tsga8", "reagent no.": 2, "GFP, % of control": 13.6, "viability (ATP), % of control": 18.1}
{"gene knocked down": "Tsga8", "reagent no.": 3, "GFP, % of control": 72.7, "viability (ATP), % of control": 106}
{"gene knocked down": "Spc24", "reagent no.": 1, "GFP, % of control": 64.4, "viability (ATP), % of control": 88.8}
{"gene knocked down": "Spc24", "reagent no.": 2, "GFP, % of control": 103, "viability (ATP), % of control": 57}
{"gene knocked down": "Spc24", "reagent no.": 3, "GFP, % of control": 62.2, "viability (ATP), % of control": 78.3}
{"gene knocked down": "Naa60", "reagent no.": 1, "GFP, % of control": 56.6, "viability (ATP), % of control": 79.1}
{"gene knocked down": "Naa60", "reagent no.": 2, "GFP, % of control": 84.3, "viability (ATP), % of control": 79.2}
{"gene knocked down": "Naa60", "reagent no.": 3, "GFP, % of control": 87.6, "viability (ATP), % of control": 34.9}
{"gene knocked down": "Taf1a", "reagent no.": 1, "GFP, % of control": 96.1, "viability (ATP), % of control": 81.1}
{"gene knocked down": "Taf1a", "reagent no.": 2, "GFP, % of control": "132 (active)", "viability (ATP), % of control": 131}
{"gene knocked down": "Taf1a", "reagent no.": 3, "GFP, % of control": "247 (active)", "viability (ATP), % of control": 150}
{"gene knocked down": "Taf1a", "reagent no.": 4, "GFP, % of control": 89.1, "viability (ATP), % of control": 108}
{"gene knocked down": "Taf1a", "reagent no.": 5, "GFP, % of control": 104, "viability (ATP), % of control": 88.5}
{"gene knocked down": "Taf1a", "reagent no.": 6, "GFP, % of control": 93.4, "viability (ATP), % of control": 81.4}
